Data published in the supplement of paper PMC4604168 (melanoma cell lines).
This is one part of the list. Many values rest on one well or one pass, so single values are uncertain.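 Imaging used 1,536-well plates; nuclei positive for cleaved PARP by antibody were divided by total DNA-stained nuclei to yield the apoptosis fraction. Doses for screening kept most cells viable, and cell lines differ markedly in resting and induced cleaved-PARP levels.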

Experiments:
Assay in all cases: cleaved PARP positive nuclei fraction relative to DMSO control; melanoma cells; higher = more apoptosis
Details in all cases: library dose: low library concentration; 72 h
[1] = tested on: MZ2-MEL
[2] = tested on: MeWo
[3] = tested on: RPMI7951
[4] = tested on: RVH-421
[5] = tested on: SkMel28
[6] = tested on: SkMel30
[7] = tested on: SkMel5
[8] = tested on: UACC257
[9] = tested on: UACC62
[10] = tested on: WM115
[11] = tested on: WM1716
[12] = tested on: WM1745
[13] = tested on: WM3526
[14] = tested on: WM3619
[15] = tested on: WM451Lu
[16] = tested on: SkMel2

Structure (SMILES) | cleaved PARP positive nuclei fraction [1] [%] | cleaved PARP positive nuclei fraction [2] [%] | cleaved PARP positive nuclei fraction [3] [%] | cleaved PARP positive nuclei fraction [4] [%] | cleaved PARP positive nuclei fraction [5] [%] | cleaved PARP positive nuclei fraction [6] [%] | cleaved PARP positive nuclei fraction [7] [%] | cleaved PARP positive nuclei fraction [8] [%] | cleaved PARP positive nuclei fraction [9] [%] | cleaved PARP positive nuclei fraction [10] [%] | cleaved PARP positive nuclei fraction [11] [%] | cleaved PARP positive nuclei fraction [12] [%] | cleaved PARP positive nuclei fraction [13] [%] | cleaved PARP positive nuclei fraction [14] [%] | cleaved PARP positive nuclei fraction [15] [%] | cleaved PARP positive nuclei fraction [16] [%]
Cc1nc(Nc2ncc(C(=O)Nc3c(C)cccc3Cl)s2)cc(N2CCN(CCO)CC2)n1 [dasatanib] + CCc1ccc(CCOc2ccc(CC3SC(=O)NC3=O)cc2)nc1 [pioglitazone] (first compound 0.004 µM, partner dose 2 µM) | 199 | 37.9 | 119 | 98.3 | 237 | 31.5 | 102 | 137 | 48.2 | 160 | 186 | 149 | 244 | 113 | 124 | 
COCC[n+]1c2c(n(Cc3cnccn3)c1C)C(=O)c1ccccc1C2=O + COC(=O)c1sccc1S(=O)(=O)Nc1ccc(Nc2ccccc2)cc1OC [GSK0660] (first compound 0.0004 µM, partner dose 1 µM) | 136 | 90.2 | 126 | 77.4 | 108 | 610 | 78.8 | 45.5 | 358 | 152 | 91.1 | 101 | 71.1 | 85 | 308 | 
Cc1nc(Nc2ncc(C(=O)Nc3c(C)cccc3Cl)s2)cc(N2CCN(CCO)CC2)n1 [dasatanib] + CN(C)S(=O)(=O)c1ccc2c(c1)/C(=C/c1cc3c([nH]1)CCCC3)C(=O)N2 [SU6656] (first compound 0.004 µM, partner dose 0.4 µM) |  | 41 | 188 | 87.1 | 88.4 | 78.4 | 104 | 87.1 | 207 | 247 | 134 | 148 | 54.3 | 101 | 80.5 | 55.5
C=CCn1c(=O)c2cnc(Nc3ccc(N4CCN(C)CC4)cc3)nc2n1-c1cccc(C(C)(C)O)n1 + O=C1NC(=O)/C(=C/c2ccc(-c3ccc(F)cc3O)o2)S1 [AS252424] (first compound 0.02 µM, partner dose 1 µM) | 88.4 | 97.9 | 124 | 65.8 | 98.3 | 138 | 58.9 | 153 | 50.9 | 98 | 81.4 | 107 | 75.1 | 95.7 | 24.4 | 
Nc1cccc2c1CN(C1CCC(=O)NC1=O)C2=O (configuration not stated) [lenalidomide] + COc1ccc(COc2ccc(Cc3cnc(N)nc3N)cc2OC)cc1 [GW2580] (first compound 1 µM, partner dose 1 µM) | 86.8 | 117 | 39.7 | 27 | 88.1 | 201 | 57.8 | 104 | 186 | 67.4 | 160 | 108 | 85.9 | 78.6 | 269 | 
OCCn1cc(-c2cnc3nnn(Cc4ccc5ncccc5c4)c3n2)cn1 + Cn1cc(/C=C2\C(=O)Nc3cccnc32)c2ccccc21 [GW441756] (first compound 1 µM, partner dose 0.4 µM) | 112 | 29.1 | 21.3 | 8.3 | 216 | 24.9 | 75.3 | 56.6 | 41 | 91.2 | 91.3 | 174 | 181 | 75.5 | 26.4 | 
NC(=O)Nc1cc(-c2cccc(F)c2)sc1C(=O)N[C@H]1CCCNC1 + COC(=O)c1sccc1S(=O)(=O)Nc1ccc(Nc2ccccc2)cc1OC [GSK0660] (first compound 0.02 µM, partner dose 1 µM) | 83.8 | 52.9 | 37.4 | 35.2 | 89.2 | 30.8 | 23.4 | 82.1 | 36.5 | 53.1 | 30.9 | 80.9 | 144 | 119 | 22.5 | 
C#Cc1cccc(Nc2ncnc3cc(OCCOC)c(OCCOC)cc23)c1 [erlotinib] + OCCn1cc(-c2cnc3nnn(Cc4ccc5ncccc5c4)c3n2)cn1 [PF04217903] (first compound 0.8 µM, partner dose 1 µM) |  | 57.2 | 47.1 | 50.5 | 53 | 58.3 | 103 | 129 | 202 | 95.4 | 253 | 117 | 56.7 | 87.5 | 102 | 122
CC(=O)c1c(C)c2cnc(Nc3ccc(N4CCNCC4)cn3)nc2n(C2CCCC2)c1=O [palbociclib] + COc1ccc(COc2ccc(Cc3cnc(N)nc3N)cc2OC)cc1 [GW2580] (first compound 0.04 µM, partner dose 1 µM) |  | 38 | 194 | 143 | 164 | 159 | 105 | 305 | 97.5 | 70 | 92.4 | 263 | 129 | 114 | 44.2 | 
NC(=O)Nc1cc(-c2cccc(F)c2)sc1C(=O)N[C@H]1CCCNC1 + N#Cc1c(O)c2c(-c3ccc(-c4ccccc4O)cc3)csc2[nH]c1=O [A769662] (first compound 0.02 µM, partner dose 2 µM) |  | 113 | 83.4 | 37.7 | 130 | 87.3 | 59.5 | 47.3 | 422 | 71.6 | 173 | 115 | 83.2 | 169 | 272 | 
Cn1cncc1[C@@](N)(c1ccc(Cl)cc1)c1ccc2c(c1)c(-c1cccc(Cl)c1)cc(=O)n2C [tipifarnib] + N#Cc1c(O)c2c(-c3ccc(-c4ccccc4O)cc3)csc2[nH]c1=O [A769662] (first compound 0.01 µM, partner dose 2 µM) |  | 51.5 | 272 | 17 | 151 | 66.2 | 60.9 | 128 | 186 | 74.8 | 188 | 114 | 61.6 | 108 | 140 | 
